The results in this text go back to article PMC11315909.

By UniProt entry, the sequences of proteins in these tests, tags left out.
UniProt O75151: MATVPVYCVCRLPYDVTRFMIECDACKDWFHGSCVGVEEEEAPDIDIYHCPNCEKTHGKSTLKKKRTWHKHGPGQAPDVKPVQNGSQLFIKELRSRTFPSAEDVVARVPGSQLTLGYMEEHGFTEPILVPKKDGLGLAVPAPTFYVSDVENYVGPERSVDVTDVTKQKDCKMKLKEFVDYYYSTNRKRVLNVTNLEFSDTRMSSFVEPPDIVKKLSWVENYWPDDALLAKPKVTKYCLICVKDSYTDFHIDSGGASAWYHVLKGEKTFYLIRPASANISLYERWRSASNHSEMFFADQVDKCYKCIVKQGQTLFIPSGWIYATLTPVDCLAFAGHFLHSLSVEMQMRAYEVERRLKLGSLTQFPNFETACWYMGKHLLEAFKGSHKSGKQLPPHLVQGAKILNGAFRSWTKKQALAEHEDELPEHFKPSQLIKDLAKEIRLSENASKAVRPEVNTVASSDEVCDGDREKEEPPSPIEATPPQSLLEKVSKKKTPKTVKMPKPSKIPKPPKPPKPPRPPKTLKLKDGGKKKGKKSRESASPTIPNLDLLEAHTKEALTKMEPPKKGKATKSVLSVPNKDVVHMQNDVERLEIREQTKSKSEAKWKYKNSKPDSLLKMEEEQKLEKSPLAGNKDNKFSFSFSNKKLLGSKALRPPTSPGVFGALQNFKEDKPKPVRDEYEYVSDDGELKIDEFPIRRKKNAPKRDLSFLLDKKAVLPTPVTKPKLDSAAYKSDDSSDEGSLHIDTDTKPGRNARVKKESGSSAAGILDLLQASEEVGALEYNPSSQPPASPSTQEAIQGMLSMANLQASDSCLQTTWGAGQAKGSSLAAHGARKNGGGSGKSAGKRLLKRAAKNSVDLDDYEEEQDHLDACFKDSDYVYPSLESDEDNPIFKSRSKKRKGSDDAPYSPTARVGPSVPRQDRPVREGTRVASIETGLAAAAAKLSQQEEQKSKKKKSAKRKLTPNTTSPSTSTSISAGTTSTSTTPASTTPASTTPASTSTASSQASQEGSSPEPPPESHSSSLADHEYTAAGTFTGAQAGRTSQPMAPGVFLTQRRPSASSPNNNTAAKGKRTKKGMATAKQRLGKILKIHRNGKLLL

No constants are given. Whether binding was seen depends on the method and setting. In cells and extracts the contact can be indirect. Some entries that bind do so weakly or less than the wild type. For some assays here: Sequences can lack the tags named with a protein.

Test [1] deals with PHF2 (overexpressed in HEK293T) (human) (UniProt O75151). Briefly: co-IP; HEK293T transfected with PHF2 and HP1BP3-HA vectors; IPH buffer (50 mM Tris-HCl pH 7.5, 150 mM NaCl, 5 mM EDTA, 0.5% NP-40); PHF2 immunoprecipitated with PHF2 antibody overnight at 4 °C, immunoblot with HA antibody; IgGs as negative control. (In western blotting, separated proteins are transferred to a membrane and probed.)

Test [2] has the same target. Kind of test: co-IP; CoIP of PHF2 and SUV39H1 (Appendix Fig. S1B); cells, constructs and antibodies not shown.

B1: HP1BP3-HA (protein, UniProt Q5SSJ5 1-553)
chain: MATDTSQGELVHPKALPLIVGAQLIHADKLGEKVEDSTMPIRRTVNSTRETPPKSKLAEGEEEKPEPDISSEESVSTVEEQENETPPATSSEAEQPKGEPENEEKEENKSSEETKKDEKDQSKEKEKKVKKTIPSWATLSASQLARAQKQTPMASSPRPKMDAILTEAIKACFQKSGASVVAIRKYIIHKYPSLELERRGYLLKQALKRELNRGVIKQVKGKGASGSFVVVQKSRKTPQKSRNRKNRSSAVDPEPQVKLEDVLPLAFTRLCEPKEASYSLIRKYVSQYYPKLRVDIRPQLLKNALQRAVERGQLEQITGKGASGTFQLKKSGEKPLLGGSLMEYAILSAIAAMNEPKTCSTTALKKYVLENHPGTNSNYQMHLLKKTLQKCEKNGWMEQISGKGFSGTFQLCFPYYPSPGVLFPKKEPDDSRDEDEDEDESSEEDSEDEEPPPKRRLQKKTPAKSPGKAASVKQRGSKPAPKVSAAQRGKARPLPKKAPPKAKTPAKKTRPSSTVIKKPSGGSSKKPATSARKEVKLPGKGKSTMKKSFRVKK
With B1, the binding entry in test [1] is reported as “binds”.

B2: SUV39H1 (protein, UniProt O43463 1-412)
chain: MAENLKGCSVCCKSSWNQLQDLCRLAKLSCPALGISKRNLYDFEVEYLCDYKKIREQEYYLVKWRGYPDSESTWEPRQNLKCVRILKQFHKDLERELLRRHHRSKTPRHLDPSLANYLVQKAKQRRALRRWEQELNAKRSHLGRITVENEVDLDGPPRAFVYINEYRVGEGITLNQVAVGCECQDCLWAPTGGCCPGASLHKFAYNDQGQVRLRAGLPIYECNSRCRCGYDCPNRVVQKGIRYDLCIFRTDDGRGWGVRTLEKIRKNSFVMEYVGEIITSEEAERRGQIYDRQGATYLFDLDYVEDVYTVDAAYYGNISHFVNHSCDPNLQVYNVFIDNLDERLPRIAFFATRTIRAGEELTFDYNMQVDPVDMESTRMDSNFGLAGLPGSPKKRVRIECKCGTESCRKYLF
As for B2, in test [2], the binding entry is reported as “binds”.
